PMC8893695, “The microprotein Nrs1 rewires the G1/S transcriptional machinery during nitrogen limitation in budding yeast” (PLoS Biology, 2022)
These are yes or no findings as the source states them, for the method shown. Binding calls can cover weak binding; strength is not graded here. For some assays here: Binding seen in cells or lysates may run through a third protein. For some assays here: Tags and fused reporters may be left off the sequences shown. Blank lines part the entries; values can stand above or below the molecule they belong to.

Experiments:
[1] = biological target: T1, Swi4^3FLAG (S. cerevisiae) (UniProt P25302); assay: co-IP; Swi4^3FLAG or Swi6^3FLAG captured on anti-FLAG M2 resin from extracts of cells treated with 200 nM rapamycin (2 h; 3 h in the replicate); all alleles from endogenous promoters; blots with anti-FLAG and anti-MYC
T1 sequence: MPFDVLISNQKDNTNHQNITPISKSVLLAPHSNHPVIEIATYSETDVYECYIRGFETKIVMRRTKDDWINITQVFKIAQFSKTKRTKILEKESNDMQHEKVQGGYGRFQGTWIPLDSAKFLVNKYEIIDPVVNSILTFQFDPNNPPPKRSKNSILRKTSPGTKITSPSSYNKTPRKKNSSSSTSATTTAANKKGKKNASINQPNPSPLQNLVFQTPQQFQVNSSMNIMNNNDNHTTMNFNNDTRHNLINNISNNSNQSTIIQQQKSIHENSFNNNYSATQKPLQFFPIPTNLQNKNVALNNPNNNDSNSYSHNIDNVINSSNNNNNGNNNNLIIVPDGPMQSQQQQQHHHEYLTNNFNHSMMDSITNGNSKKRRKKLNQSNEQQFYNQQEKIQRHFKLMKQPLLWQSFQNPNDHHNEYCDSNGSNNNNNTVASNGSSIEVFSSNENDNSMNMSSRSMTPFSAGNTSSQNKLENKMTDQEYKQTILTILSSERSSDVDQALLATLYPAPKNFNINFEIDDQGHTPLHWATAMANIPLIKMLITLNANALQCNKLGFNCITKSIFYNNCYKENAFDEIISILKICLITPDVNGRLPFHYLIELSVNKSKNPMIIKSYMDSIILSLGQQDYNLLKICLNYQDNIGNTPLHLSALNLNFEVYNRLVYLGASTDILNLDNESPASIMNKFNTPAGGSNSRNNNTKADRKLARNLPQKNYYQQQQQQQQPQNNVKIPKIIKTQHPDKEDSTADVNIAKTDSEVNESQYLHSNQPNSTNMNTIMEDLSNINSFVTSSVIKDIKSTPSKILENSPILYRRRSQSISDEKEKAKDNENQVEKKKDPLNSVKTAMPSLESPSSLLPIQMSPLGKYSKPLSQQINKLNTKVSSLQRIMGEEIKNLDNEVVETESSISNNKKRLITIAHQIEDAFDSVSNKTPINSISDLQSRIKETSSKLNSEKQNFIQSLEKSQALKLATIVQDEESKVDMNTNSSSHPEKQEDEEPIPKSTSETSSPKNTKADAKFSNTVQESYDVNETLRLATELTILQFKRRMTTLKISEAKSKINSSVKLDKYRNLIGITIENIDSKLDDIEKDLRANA

[2] = biological target: T2, Swi6^3FLAG (S. cerevisiae) (UniProt P09959); assay: as above
T2 sequence: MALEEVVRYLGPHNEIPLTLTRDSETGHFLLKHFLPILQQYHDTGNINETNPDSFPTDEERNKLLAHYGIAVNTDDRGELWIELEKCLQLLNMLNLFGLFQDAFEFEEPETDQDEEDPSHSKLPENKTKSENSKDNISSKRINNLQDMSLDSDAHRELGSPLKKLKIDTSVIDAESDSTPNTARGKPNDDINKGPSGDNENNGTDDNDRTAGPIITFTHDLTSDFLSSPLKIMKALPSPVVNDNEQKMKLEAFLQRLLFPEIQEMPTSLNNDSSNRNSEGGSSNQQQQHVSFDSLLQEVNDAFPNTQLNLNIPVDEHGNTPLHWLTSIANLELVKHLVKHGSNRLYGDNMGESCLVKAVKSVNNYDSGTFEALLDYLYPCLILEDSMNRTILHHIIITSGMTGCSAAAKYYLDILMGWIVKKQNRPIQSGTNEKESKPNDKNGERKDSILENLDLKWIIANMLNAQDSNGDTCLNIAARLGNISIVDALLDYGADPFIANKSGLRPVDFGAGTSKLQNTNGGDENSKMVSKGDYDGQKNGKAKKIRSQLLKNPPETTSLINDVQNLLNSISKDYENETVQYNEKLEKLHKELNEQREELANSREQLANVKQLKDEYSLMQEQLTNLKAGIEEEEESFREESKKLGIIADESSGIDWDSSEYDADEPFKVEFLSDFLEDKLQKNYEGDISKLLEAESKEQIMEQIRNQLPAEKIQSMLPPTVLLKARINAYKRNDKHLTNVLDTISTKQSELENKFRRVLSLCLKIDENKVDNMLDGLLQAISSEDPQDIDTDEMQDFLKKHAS

[3] = biological target: ^FLAGSwi4-Swi6-^GSTNrs1 complex (S. cerevisiae); assay: pull-down; recombinant ^HAWhi5 or ^GSTNrs1 titrated into preformed ^FLAGSwi4-Swi6-^GSTNrs1 or ^FLAGSwi4-Swi6-^HAWhi5 complexes immobilised on anti-FLAG resin; immunoblot and Coomassie; both purified
[4] = biological target: Nrs1^13MYC (S. cerevisiae); assay: co-IP; Nrs1^13MYC or Whi5^13MYC captured on anti-MYC resin from cultures untreated or treated with 200 nM rapamycin for 3 h; blots with polyclonal anti-Swi4 and anti-Swi6

binding [1]: binds
binding [2]: binds
Molecule: Nrs1^13MYC (S. cerevisiae)

binding [3]: binds
B1: recombinant ^HAWhi5 (natural protein, S. cerevisiae, UniProt Q12416 1-295, looked up)
chain: MSLRTPKRSRTSDEQEQEQEQEQVQNPDTHVNNEHQQRPGPTTLLSTPVRLKNGFGTPSPPSPPGITKSITKSRRRPSTTSLQGIFMSPVNKRRVGITAHGRVYDHNDDGHESESEDDENEEENENQKKYDGHVSMPLLPPTTPKSRRSEVFLSPSPRLRSPPTAARRSTGERPIREISHTLRTRLNYALVKLQNGWTDKTLPELETELAPAVQTPPRRYHNRFPDSADAGTSAHTAFLQALGGHPPREEATAVETLMLLSSPTKKQQHRPVPATSAGEPTDETEPESDTEVETS
notes: Whi5, S. cerevisiae; source: recombinant

binding [4]: binds
B2: Swi6 (protein, UniProt P09959 1-803)
chain: T2 sequence

binding [4]: binds
B3: Swi4 (protein, UniProt P25302 1-1093)
chain: T1 sequence
